Earlier results as cited in patent publication US10479814B2, “Adenosine receptor activation reagent and the uses of thereof” (Zhejiang Subtropical Crops Research Institute, priority 2014, dated 2019).
Some of these results come from one statement about several compounds together. At least one structure is not confirmed: it was looked up by name or label, or the drawing left a doubt.

System: A1 receptor
Conditions: according to document record (Jacobson 1992); cited from earlier work

Row | SMILES | A1 selectivity
1 | OC[C@H]1O[C@@H](n2cnc3c(NC4CCCCC4)ncnc32)[C@H](O)[C@@H]1O [CHA] | 400˜800 fold
2 | OC[C@H]1O[C@@H](n2cnc3c(NC4CCCC4)ncnc32)[C@H](O)[C@@H]1O [CPA] | 400˜800 fold
